In PubChem BioAssay AID1347426 (Functional Genomics Laboratory (NCATS/FGL), 2020) one finds median seed-adjusted z-score data, which are given here for 68 sequences.

Screen size: about 31,000 sequences; about 1,400 (4.5%) were called active.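 Rule for the calls: active = median seed-adjusted z-score above 1 or below -1; inactive = the rest.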 This is one part of the list.

The test can be described thus: Novel Modifiers of Survival Motor Neuron (SMN) Protein: Gene Identification via Genome-wide siRNA Screen.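 Note: luminescence tracks full-length SMN protein made from the SMN2 reporter.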 To be noted: HEK293T SMN2-luciferase reporter, siRNA knockdown, 72 h; actives lie on both sides. A digest of the protocol: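 Each of three siRNAs per gene is reverse-transfected (1 pmol) into reporter HEK293T cells whose luciferase output tracks SMN protein level. After 72 h culture, ONE-Glo luminescence is control-normalized, log10-transformed and MAD-standardized; Common Seed Analysis deprioritizes seed-driven hits.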
(In general: A reporter such as luciferase makes a cellular process visible.)
On to CCCUGUUCCUGUUAGAUGATT against STK11IP, for which the median seed-adjusted z-score was inactive: 0.0745. Regarding GGAUAAGAGGCAUGAGGAATT against PPP1R14C, the median seed-adjusted z-score was inactive: -0.316.

Consider CGUCAGCGGUUUAGCUGGATT against SLC25A10, for which the median seed-adjusted z-score was inactive: -0.571.

As for CGAGAACCAUGGAGUUGAATT against PMVK, the median seed-adjusted z-score is inactive: 0.269. Consider GGUUAUACCCUCAACUACATT against PARP2, for which the median seed-adjusted z-score is inactive: -0.366. Next, CGGAGUAGCUGAGAUCUUATT against COL15A1: inactive: 0.161; CACUGUAGUUUCUCUAUUUTT against SLC2A3: inactive: -0.277. As to GCAACGGGUUUGGAGUCAATT against KRT75, the median seed-adjusted z-score was inactive: 0.0773. As for GCACGUAACAGCUAAGGAATT against EIF2B5, the median seed-adjusted z-score was inactive: -0.432. Next, “GGAUGAUAAAUGACACCUATT against ST6GALNAC3”: inactive: -0.205; GAGAUGUACUUGAACGUAATT against PIK3C3: inactive: 0.

On to GCCUAUAGGAUUGAACCAATT against DDHD2, for which the median seed-adjusted z-score was inactive: 0.447. For GGCAAAGUUGUAAAGGUUATT against ZCRB1, the median seed-adjusted z-score is inactive: 0.265. Next, AGCUAAAGAUCAUCAAGAATT against LONP1: inactive: -0.291; GGCUCAAAAACUAAGUGAATT against WDHD1: inactive: -0.0501. As for GACAAGACGUGGUCAAGAATT against BCL2L13, the median seed-adjusted z-score was inactive: 0.311. For the sequence CCCACAGAGUAGCUACUGATT against CD2, the median seed-adjusted z-score is inactive: 0.00791. In the case of AAAAGAGACUGAUCAUCCATT against NR2F6 it was inactive: -0.681. Next, GCAUAUGGAUUAAUCUCUUTT against CCKAR: inactive: 0.376.

With CCAUCCACAUGUACAUCAATT against CLPP, the median seed-adjusted z-score is inactive: -0.118. On to CAUCCUCGUGCUUACUUCATT against POLR3K, for which the median seed-adjusted z-score is inactive: 0.504. On to GAAAUGUACCCUCCAGAAATT against CCNB1, for which the median seed-adjusted z-score was inactive: 0.163. For GGAAUACCUUUAGUCUUCATT against UNC5D, the median seed-adjusted z-score is inactive: -0.132.

For the sequence GCUGAUCGGAUGUUGGAUATT against DDX3X, the median seed-adjusted z-score is inactive: 0.0136. In the case of CAACAAUGCCCUCUACUUUTT against GPR83 it was inactive: 0.105; in that of GGCCUUCGUGGAUCAUUCATT against ZNF699, inactive: -0.428. In the case of GAGACAUACCGCUACCUGATT against KCNJ9 it was inactive: -0.0832. Consider GGGUAAUUCAUUAACUCCUTT against EMX1, for which the median seed-adjusted z-score was inactive: -0.689.

Take UGGGAAAUGUGACAGAGUUTT against CYP27B1: the median seed-adjusted z-score is inactive: -0.149.

In the case of GAAUCCACCUGAGACCUGATT against GABARAPL1, the median seed-adjusted z-score is inactive: 0.402. Next, GAUAGACUGGUAAUACGUATT against JRKL: inactive: -0.227.

Turning to GGUCAGAACUCCUCAGAUATT against SLC22A2, the median seed-adjusted z-score is inactive: -0.0161. With ACCCAUCUGUCGCUCUUCATT against TRAF1, the median seed-adjusted z-score is inactive: 0.518. In the case of CAAAAAGUCGUGCAACAAATT against ZIC1 it was inactive: 0.162; in that of GGAACUGCAUCUCUUCUUATT against AMPD2, inactive: 0.214; in that of GGAUGGUCUAGUAAGGAUATT against DIMT1L, inactive: 0.0156. CAAUGGAAUCUACAAAGGATT against UAP1: the median seed-adjusted z-score is inactive: 0.0411.

With GGAAUGGAAUGAUCGGUGATT against GRIN2A, the median seed-adjusted z-score is inactive: 0.025. In the case of CGAGAACAAGCAGCACAAATT against CABC1 it was inactive: -0.197; in that of CACCAUUUAUAUCGACGAATT against TEKT1, inactive: 0.222; in that of GCAAAGCUCUAGUCUCAUUTT against ZNF154, inactive: 0. Regarding GGAAGUUUUGUUUACGGUATT against DYNC1LI1, the median seed-adjusted z-score was inactive: -0.683. In the case of GCAUAGCUAUGCAGACUCUTT against GTF2H2 it was inactive: -0.00624. GCAGUACUUCUGAUACCCATT against IRF3: the median seed-adjusted z-score is inactive: 0.0117. On to AGAUCCACAUGUACGAACATT against GLI2, for which the median seed-adjusted z-score was inactive: -0.796. Next, CCACUUUACCCACUACCCATT against ISX: active: 1.99.

Take GGAUCACACGGUCAAGAGATT against ZNF696: the median seed-adjusted z-score is inactive: 0.17. Regarding CGUUGACUCUGAACAUGAATT against SSRP1, the median seed-adjusted z-score was inactive: -0.31. Consider CGGUUUCCCUCCAAACUCATT against PRKACG, for which the median seed-adjusted z-score is inactive: 0. Next, GGCUGGAAUCGAUGGAGAATT against CLIC5: inactive: 0; GAUUAAGUCUGGAAUGAAUTT against PKM2: inactive: -0.0312; GGCAAUCUCUCCAAUCUUATT against SLC10A4: inactive: 0.069. Next, GCUUUGCUCCCAUCAAUGATT against UHRF1: inactive: 0.231; CAGUAGAUUGUAUAGCUUUTT against POLK: inactive: -0.102; ACCUGGUUCAGUUACCUGATT against CANT1: inactive: 0. Regarding GAUGAUUCAGGUAAAAUAATT against CETN3, the median seed-adjusted z-score was inactive: -0.0815. Next, CGCACGCUCUUCAAAUUCUTT against ADRA2A: inactive: -0.65; GGAUGACCACAAAAUCCAATT against DDX28: inactive: -0.305.

CCAAUGAGUUUGUCAAUUATT against SLITRK5: the median seed-adjusted z-score was inactive: 0.165. Regarding CCAUUAAUGAAUUAGUCUATT against TXN, the median seed-adjusted z-score is inactive: -0.195. Take GGGAAUAGCUUAUCUUGUUTT against RFC4: the median seed-adjusted z-score was inactive: -0.386. Take CAGCGGAAGGAGGCAAUUATT against ULK3: the median seed-adjusted z-score was inactive: -0.73. As for AUUUUGAACCUGAUGAAAATT against LTB, the median seed-adjusted z-score is inactive: 0.646. In the case of GCCGAAACCUAUUAGACGATT against ADAMTS3 it was inactive: 0. In the case of GAAUCAACUUUGCCGUGUUTT against SHMT2 it was inactive: -0.0453; in that of GAAAUUGGAAUGUAGUAAATT against TRIP11, inactive: 0.333. Next, GGAACUGAAGGGAUAAUAATT against CCT8L2: inactive: -0.39; GGAAGAUCUAUGAGAUCUATT against UNC5A: inactive: 0.517.
